Reference: article PMC7892644 (Cancer discovery, 2020)

Columns and labels:
[1] = test system: recombinant SOS2 and recombinant KRAS G12C or KRAS G12D; details: SOS1 replaced with its paralog SOS2
[2] = test system: RAS-GTP and pERK levels in A549 xenograft tumors; details: single administration
KRAS mutant cancer cells = test: cells; details: read-out: IC50 of 3D growth
[3] = test system: recombinant SOS1 with mutations Y884A and H905V, interaction with KRAS G12D

Compound: COc1cc2nc(C)nc(N[C@H](C)c3cc(N)cc(C(F)(F)F)c3)c2cc1O[C@H]1CCOC1 [BI-3406]
- interference with KRAS binding to SOS2 [1]: lost its ability to interfere with KRAS binding
- period of reduced pERK levels [2]: 7 hours
- IC50 (KRAS mutant cancer cells): 16 to 52 nM
- ability to disrupt interaction of mutated SOS1 with KRAS G12D [3]: strongly impaired
